From publication PMC4231735 come the findings set out here.

The chains behind the UniProt entries cited, without tags or fusion partners.
UniProt P40160: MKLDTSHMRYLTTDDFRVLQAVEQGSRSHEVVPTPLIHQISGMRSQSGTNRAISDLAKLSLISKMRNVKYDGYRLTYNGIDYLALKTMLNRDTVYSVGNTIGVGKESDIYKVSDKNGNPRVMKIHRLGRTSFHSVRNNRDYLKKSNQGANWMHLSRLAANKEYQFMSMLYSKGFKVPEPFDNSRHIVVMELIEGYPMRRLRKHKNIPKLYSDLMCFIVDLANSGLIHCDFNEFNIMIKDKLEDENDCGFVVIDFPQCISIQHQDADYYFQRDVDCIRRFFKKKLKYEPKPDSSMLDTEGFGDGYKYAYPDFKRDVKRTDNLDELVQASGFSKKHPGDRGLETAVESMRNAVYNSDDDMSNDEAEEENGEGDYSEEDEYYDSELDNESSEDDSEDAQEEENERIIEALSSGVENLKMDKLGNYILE

Assay [1] has as its target T1, HTP-tagged Rio1 (S. cerevisiae), Q12196.
T1 chain: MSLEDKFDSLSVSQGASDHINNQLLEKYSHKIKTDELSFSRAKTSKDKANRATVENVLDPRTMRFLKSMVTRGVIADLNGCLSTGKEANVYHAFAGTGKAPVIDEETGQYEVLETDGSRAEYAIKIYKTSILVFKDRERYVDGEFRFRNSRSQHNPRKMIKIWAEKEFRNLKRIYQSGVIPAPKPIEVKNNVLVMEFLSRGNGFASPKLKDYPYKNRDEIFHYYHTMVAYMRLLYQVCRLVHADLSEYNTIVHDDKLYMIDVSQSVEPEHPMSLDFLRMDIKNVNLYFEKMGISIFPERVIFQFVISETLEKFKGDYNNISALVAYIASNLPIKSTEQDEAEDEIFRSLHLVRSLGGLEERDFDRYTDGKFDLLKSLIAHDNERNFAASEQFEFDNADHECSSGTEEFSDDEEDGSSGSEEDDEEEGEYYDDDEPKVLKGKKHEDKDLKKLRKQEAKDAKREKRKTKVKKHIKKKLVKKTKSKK
Briefly: affinity purification with mass spectrometry; HTP-tagged bait purified from yeast by a fast IgG affinity purification protocol; associated proteins quantified by label-free LC-MS; two (Rio2) or three (Rio1) replicates. The following applies: remark: other sources report otherwise.

For assay [2], the target named is HTP-tagged Rio2 (S. cerevisiae) (UniProt P40160). The description is as above.

Results are given in words; binding and its absence hold for the method and conditions named. In cells and extracts the contact can be indirect. A yes stands for co-enrichment or nearness to the bait. Other partners may have been found. For part of these data: A no says only that the protein was not detected with the bait. For part of these data: Where a sequence is shown, tags or fusion partners need not be part of it.

B1: Nob1, Q08444 1-459 (protein)
chain: MTENQTAHVRALILDATPLITQSYTHYQNYAQSFYTTPTVFQEIKDAQARKNLEIWQSLGTLKLVHPSENSIAKVSTFAKLTGDYSVLSANDLHILALTYELEIKLNNGDWRLRKKPGDALDASKADVGTDGKQKLTEDNKKEEDSESVPKKKNKRRGGKKQKAKREAREAREAENANLELESKAEEHVEEAGSKEQICNDENIKESSDLNEVFEDADDDGDWITPENLTEAIIKDSGEDTTGSLGVEASEEDRHVALNRPENQVALATGDFAVQNVALQMNLNLMNFMSGLKIKRIRNYMLRCHACFKIFPLPKDGKPKHFCASCGGQGTLLRCAVSVDSRTGNVTPHLKSNFQWNNRGNRYSVASPLSKNSQKRYGKKGHVHSKPQENVILREDQKEYEKVIKQEEWTRRHNEKILNNWIGGGSADNYISPFAITGLKQHNVRIGKGRYVNSSKRRS
Regarding B1, in assay [1], the binding result is given as “binds”.

B2: Rio1 (protein, UniProt Q12196 1-484)
chain: T1 chain
Consider B2, for which the binding result in assay [2] is “no binding”.

B3: Dim2, Q99216 1-274 (protein)
chain: MVAPTALKKATVTPVSGQDGGSSRIIGINNTESIDEDDDDDVLLDDSDNNTAKEEVEGEEGSRKTHESKTVVVDDQGKPRFTSASKTQGNKIKFESRKIMVPPHRMTPLRNSWTKIYPPLVEHLKLQVRMNLKTKSVELRTNPKFTTDPGALQKGADFIKAFTLGFDLDDSIALLRLDDLYIETFEVKDVKTLTGDHLSRAIGRIAGKDGKTKFAIENATRTRIVLADSKIHILGGFTHIRMARESVVSLILGSPPGKVYGNLRTVASRLKERY
As for B3, in assay [1], the binding entry was “binds”.
